This passage reports AC50 results from PubChem BioAssay AID493014 (National Center for Advancing Translational Sciences (NCATS), 2011).

Some of the results follow. These are further read-outs of the screen, such as a control signal, another cell line or another target. No call is given for them. Most of these compounds were active or inconclusive in the main read-out, so they are no random draw. Potencies come from curve fits of mixed quality, noted in brackets.

A short description of the assay: qHTS Assay to Find Inhibitors of Chronic Active B-Cell Receptor Signaling. Conditions: ABC-DLBCL IkBa-CBG/CBR reporter, luminescence ratio (green luciferase fused to IkBa over red control in TMD8 lymphoma cells), 4 h. The procedure, abridged:
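Concentration-response series (up to 46 uM) were applied to TMD8 dual-reporter cells for 4 h at 37C with doxycycline. Green/red ratio, after filter-overlap correction, defined %Activity; red signal alone was normalised to basal cells and zero luminescence.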
On the technique in general: In qHTS, concentration-response curves come from the screen itself.

Setting [1] is: measured here: CBR red luminescence, cell number.
The mark [2] stands for this setting: measured here: IkBa-CBG green luminescence.

For orientation: AC50 means the concentration at which the activity in the assay is half-maximal. In the case of `Nc1cc(S(=O)(=O)c2ccc(O)c(N)c2)ccc1O`, under setting [1], the concentration at half-maximal activity (AC50) was 11.2 µM [rising, partial curve]. For the molecule `Nc1n[nH]c2c1C1(CCCCC1)Cc1ccccc1-2`, under setting [1], the AC50 is 12.6 µM [falling, partial curve, poor fit]. As for `C(=N\Nc1nc2ccccc2[nH]1)/c1c[nH]c2ccccc12`, the AC50 is, setting by setting: under setting [1], 8.2 µM [falling, partial curve]; under setting [2], 6.51 µM [falling, partial curve, poor fit]. As to `CC(C)[C@H](NC(=O)N1CCn2c1nc1ccccc12)C(=O)N[C@H](Cc1ccccc1)C(=O)O`, the AC50 under setting [1] was 22.4 µM [falling, single point]. Consider `CC(=O)c1ccc(NC(=O)C(C)Sc2nnnn2C)cc1` (stereo not drawn), for which, under setting [1], the AC50 was 3.98 µM [rising, partial curve, poor fit]. Take `CC1=NN(c2ccc(C(=O)O)c(N)c2)C(=O)C1`: the AC50 under setting [1] is 12.6 µM [falling, partial curve, poor fit]. For the molecule `CC(=O)N(c1nnc(-c2cccc(C)c2)s1)C1CCCC1`, the concentration at half-maximal activity (AC50) under setting [1] was 5.01 µM [rising, full curve]. `Cc1ccc(C(=O)N(CCC2=CCCCC2)c2c(N)n(Cc3ccccc3)c(=O)[nH]c2=O)o1`: under setting [1], the half-maximal activity concentration (AC50) was 10.3 µM [falling, single point].

On to `CCOc1ncccc1C(=O)OCC(=O)c1ccc(OC)c(OC)c1`, for which the AC50 under setting [1] was 11.2 µM [falling, partial curve]. On to `Cc1c(C(=O)N(C)Cc2ccccc2)oc2c(Cl)cccc12`, for which the AC50 under setting [1] was 35.5 µM [rising, single point].

In the case of `CCOC(=O)N1CCN(Cc2ccc(O)c3ncccc23)CC1`, the AC50 under setting [1] was 35.5 µM [rising, single point]. `O=C(Nc1cccnc1)c1ccc(Cl)c(S(=O)(=O)N2CCCCCC2)c1`: the AC50 under setting [1] was 20.6 µM [falling, partial curve, poor fit]. On to `CCn1ncc(C2=NOC(C(=O)NCC(C)C)C2)c1C` (stereo not drawn), for which the half-maximal activity concentration (AC50) under setting [1] is 0.092 µM [rising, full curve, poor fit]. For the molecule `Cc1csc(CNC(=O)CC2C(=O)NCCN2Cc2ccc(F)cc2Cl)n1` (stereo not drawn), the AC50 under setting [1] is 3.98 µM [falling, full curve, poor fit]. With `Nc1ncnc(NCc2ccccc2)c1[N+](=O)[O-]`, the AC50 under setting [1] is 6.51 µM [rising, single point]. In the case of `COc1cc(OC)c2c(-c3ccccc3)cc(=O)oc2c1C(CC(=O)N1CCN(c2ccccc2)CC1)c1ccc2c(c1)OCO2` (stereo not drawn), the half-maximal activity concentration (AC50) under setting [1] was 6.31 µM [rising, single point]. On to `CCCn1cc(NC(=O)C2CC(c3cccc(Br)c3)=NO2)cn1` (stereo not drawn), for which the AC50 under setting [1] is 1.16 µM [rising, full curve, poor fit]. Turning to `CCc1ccc(NC(=O)CSC2=C(C#N)C(c3ccco3)C3=C(CCCC3=O)N2)cc1` (stereo not drawn), the AC50 under setting [1] was 12.6 µM [falling, single point].

`COc1cccc(Nc2ncnc3ccccc23)c1`: under setting [1], the AC50 is 20.6 µM [falling, single point]. For the molecule `CN(C(=O)c1ccccc1Cl)C1CCCCC1`, under setting [1], the AC50 was 0.259 µM [falling, full curve, poor fit]. For the molecule `COc1ccc(Cl)cc1NC(=O)Cn1nnc(C(=O)NCCc2ccc(OC)c(OC)c2)c1N`, under setting [1], the AC50 is 6.31 µM [rising, single point]. For `Cc1ccc(N2C(=O)C3C4C=CC(C4)C3C2=O)cc1` (stereo not drawn), the AC50 under setting [1] was 35.5 µM [rising, partial curve, poor fit]. In the case of `CCN1C(=O)/C(=C2\SC(=S)N(CCCOC)C2=O)c2ccccc21`, the AC50 under setting [1] was 3.55 µM [falling, partial curve, poor fit]. Same read-out and setting: the figure for `O=C(CN1CCCCCC1)N/N=C/c1ccc(Cl)c(Cl)c1` is 2.59 µM [rising, partial curve, poor fit]. As to `Cc1c(Cl)cccc1NC(=O)NC1CCCCC1`, the AC50 under setting [1] is 6.31 µM [rising, single point]. For `O=C(Nc1ccccc1)Nc1nccs1`, the AC50 under setting [1] was 35.5 µM [falling, single point].

Turning to `Cc1n[nH]c(=O)n1-c1ccc(Oc2ccccc2)cc1`, under setting [1], the AC50 is 17.8 µM [rising, partial curve, poor fit]. `O=C(CSc1nnc(CNC(=O)c2c(F)cccc2F)o1)NCc1ccccc1Cl`: the AC50 under setting [1] is 0.112 µM [falling, full curve, poor fit]. As to `O=C1c2cccc(OCC(=O)N3CCCc4ccccc43)c2CCN1Cc1cccnc1`, the concentration at half-maximal activity (AC50) under setting [1] was 35.5 µM [falling, single point]. Still for that read-out and setting: next, `c1ccc(-c2nc(NCCCn3ccnc3)c3oc4ccccc4c3n2)cc1`: 14.1 µM [falling, partial curve]. Turning to `COc1ccc(-c2c(C#N)sc(C(N)=O)c2-c2ccc(OC)cc2)cc1`, the half-maximal activity concentration (AC50) under setting [1] is 31.6 µM [falling, single point] and the AC50 under setting [2] is 15.8 µM [rising, partial curve, poor fit]. Regarding `Cc1cccc(OCC(=O)N(Cc2ccc(N(C)C)cc2)C2CCS(=O)(=O)C2)c1` (stereo not drawn), under setting [1], the AC50 is 35.5 µM [falling, single point]. For the molecule `O=C(CSc1ncnc2c1oc1ccccc12)N1CCCc2ccccc21`, under setting [1], the AC50 is 0.731 µM [rising, full curve, poor fit]. Turning to `COCCN(C(=O)COC(=O)c1c(-c2ccccc2)noc1C)c1c(N)n(Cc2ccccc2)c(=O)[nH]c1=O`, the half-maximal activity concentration (AC50) under setting [1] was 11.2 µM [falling, partial curve, poor fit]. Same read-out and setting: the figure for `CCOC(=O)c1sc2nc(CC(=O)OC)nc(NCCN(CC)CC)c2c1C` is 29.1 µM [falling, partial curve, poor fit].

For `CC(C)Cc1cc(C(=O)Nc2ccc3c(c2)OCO3)no1`, under setting [1], the concentration at half-maximal activity (AC50) was 16.4 µM [falling, single point]. The same measure, in the same setting: the figure for `O=C(Nc1ccccc1)Nc1ccc2nnsc2c1` is 10 µM [falling, partial curve, poor fit]; for `COc1ccc(C2CC(c3ccccc3)=NN2C(=O)COC(=O)c2cccc(N)c2)cc1` (stereo not drawn) it is 3.66 µM [falling, single point]. Turning to `Cc1nc(/N=C(\N)NC(=O)NC2CCCCC2)nc2ccccc12`, the AC50 under setting [1] was 14.1 µM [falling, single point]. In the case of `Cc1ccc(C(=O)Cn2c(=N)n(N)c3ccccc32)cc1`, the AC50 under setting [1] is 31.6 µM [falling, partial curve, poor fit]. `N#CNC(=Nc1ccccc1F)SCc1ccc(C(=O)O)cc1`: the AC50 under setting [1] is 35.5 µM [falling, single point]. Still for that read-out and setting: the figure for `CC1=CC(C)(C)N2C(=O)C3(NCCc4c3[nH]c3ccccc43)c3cc(C)cc1c32` (stereo not drawn) is 35.5 µM [falling, single point]. As for `Cc1cc(-c2ccc([N+](=O)[O-])cc2)nc2ccccc12`, the AC50 under setting [1] is 11.2 µM [rising, partial curve].

Consider `CC(C)NC(=O)CC1OC(=O)c2ccccc21` (stereo not drawn), for which the AC50 under setting [1] is 7.31 µM [rising, partial curve, poor fit]. As to `CCCCCCNc1c(C(=O)OCC)c(=O)[nH]c2ccccc12`, under setting [1], the AC50 is 28.2 µM [falling, single point].

Consider `COc1cccc(NC(=O)CNC(=O)c2ccc([N+](=O)[O-])cc2)c1`, for which, under setting [1], the AC50 was 35.5 µM [rising, single point]. Same read-out and setting: next, `O=C(COc1ccc([N+](=O)[O-])cc1)N/N=C/c1ccccn1`: 5.62 µM [rising, full curve, poor fit]; `O=C(c1cccc(C(F)(F)F)c1)C1CCCN(C(=O)CN2CCOC2=O)C1` (stereo not drawn): 20 µM [rising, single point]. For the molecule `COc1ccc(NC(=O)CSc2nc(N)c(C(=O)Nc3ccc(N(C)C)cc3)s2)cc1`, the AC50 under setting [2] was 14.6 µM [falling, partial curve, poor fit]. On to `Cc1nc(-c2cccc(NC(=O)c3cccs3)c2)cs1`, for which the concentration at half-maximal activity (AC50) under setting [1] was 29.1 µM [falling, single point].

With `O=C(c1ccc(-c2ccccc2Cl)o1)N1CCC1`, the half-maximal activity concentration (AC50) under setting [1] was 3.66 µM [rising, partial curve, poor fit]. For `Cc1ccc(NC(=S)NC(NC(=O)c2ccccc2C)C(Cl)(Cl)Cl)c(C)c1` (stereo not drawn), the concentration at half-maximal activity (AC50) under setting [1] was 2.51 µM [falling, full curve, poor fit]. For `COC(=O)/C=C/S(=O)(=O)c1ccc(NC(C)=O)cc1`, the AC50 under setting [1] was 7.08 µM [falling, partial curve].

Take `CC(C)(O)CCC(C)(C)O`: the concentration at half-maximal activity (AC50) under setting [1] was 6.51 µM [falling, single point].

On to `CCN(CC)C(=O)COc1ccc(/C(C)=N/NC(=O)c2ccccc2O)cc1`, for which the AC50 under setting [1] is 3.55 µM [falling, full curve]. In the case of `N=c1c2c(ncn1CCCO)Oc1ccc3ccccc3c1C2c1ccccc1` (stereo not drawn), under setting [1], the half-maximal activity concentration (AC50) was 17.8 µM [falling, single point]. For the molecule `Cc1ccc(CCC(=O)Nc2ncc(Cc3cc(Cl)ccc3Cl)s2)o1`, the AC50 is, setting by setting: under setting [1], 20.6 µM [rising, partial curve]; under setting [2], 5.8 µM [falling, full curve]. For `O=C(C1CCCN1S(=O)(=O)c1ccc(Cl)cc1)N1CCOCC1` (stereo not drawn), the AC50 under setting [1] was 16.4 µM [rising, single point]. Take `CC(=O)N1C(=O)N(C)C2C1N(C(C)=O)C(=O)N2C` (stereo not drawn): the half-maximal activity concentration (AC50) under setting [1] was 29.1 µM [rising, single point].

For `COc1ccc(CNc2ccc(Br)cc2)cc1`, the AC50 under setting [1] is 1.26 µM [rising, full curve, poor fit]. `C/C(=N/Nc1nc(-c2ccccc2)cc(-c2ccc(F)cc2)n1)c1cccc(N)c1`: under setting [1], the AC50 is 3.66 µM [falling, full curve]. The same measure, in the same setting: next, `N#CC1=C(N)NC(SCc2ccc(F)cc2)=C(C#N)C12CCCCC2`: 23.1 µM [falling, single point].

With `O=C(Nc1ccccc1C(F)(F)F)N1CCC(n2c(=O)[nH]c3ccccc32)CC1`, the AC50 under setting [1] was 6.51 µM [rising, single point]. Turning to `O=C(Nc1ccccc1Cl)N1CCSc2ccccc21`, the AC50 under setting [1] is 3.98 µM [rising, full curve, poor fit]. For the molecule `O=C(N/N=C/c1ccc([N+](=O)[O-])cc1)c1ccccc1OCc1ccccc1`, the half-maximal activity concentration (AC50) under setting [1] is 1.12 µM [falling, partial curve, poor fit].
